Experimental data from US11680297B2, “Activities of multiple cancer-related pathways are associated with BRAF mutation and predict the resistance to BRAF/MEK inhibitors in melanoma cells” (THE JOHNS HOPKINS UNIVERSITY, priority 2013, dated 2023).
For at least one compound, name, drawing or mass did not settle the structure.

Experiments:
Assay type in all cases: cell-based
RPMI-7951 cells = test: Cell proliferation (MTT) assay; conditions: RPMI-7951, 72 h treatment, MTT (FIG. 12)
Protocol: (§1) After 72 h treatments, cell culture was added with 10 μl of 5 mg/ml MTT agent (3-(4,5-Dimethylthiazol-2-yl)-2,5-diphenyltetrazolium bromide, Sigma St. Louis, Mo.) and incubated for 4 h, followed by addition of 100 μl of 10% SDS solution and a further incubation overnight. The plates were then read on a microplate reader using the test wavelength of 570 nm and the reference wavelength of 670 nm. Five duplicates were done to determine each data point. GI50 was calculated as previously reported (21).

SK-MEL-24 cells = test: Cell proliferation (MTT) assay; conditions: SK-MEL-24, 72 h treatment, MTT (FIG. 12)
Protocol: as §1

A375 cells = test: PARP cleavage (Western blot) and DNA ladder, apoptosis; conditions: A375 cells (FIG. 5C, D)
DRO cells [1] = test: as above; conditions: DRO cells (FIG. 5C, D)
DRO cells [2] = test: Cell proliferation (MTT) assay; conditions: DRO compared with its parent line A375, MTT (FIG. 5A, B)

Row | SMILES | resistance to proliferation inhibition (RPMI-7951 cells) | resistance to proliferation inhibition (SK-MEL-24 cells) | cleavage of PARP and DNA ladder (apoptosis) (A375 cells) | cleavage of PARP and DNA ladder (apoptosis) (DRO cells [1]) | sensitivity to proliferation inhibition (DRO cells [2])
1 | CCCS(=O)(=O)Nc1ccc(F)c(C(=O)c2c[nH]c3ncc(-c4ccc(Cl)cc4)cc23)c1F [PLX4032, Vemurafenib] | resistant | resistant | not in A375 cells | significant cleavage | much more sensitive
2 | Cn1cnc2c(F)c(Nc3ccc(Br)cc3Cl)c(C(=O)NOCCO)cc21 [AZD6244, selumetinib] |  |  | not in A375 cells | significant cleavage | 
